{
  "source": "patent US11229590B2",
  "about": "“Sunscreen formulation” (priority 2018, dated 2022)",
  "origin": "cited, not measured here",
  "note": "Some of these results come from one statement about several compounds together. At least one compound was matched to its structure with a doubt left. Some ranges recur; such a range may be that of the whole group of compounds.",
  "data": [
    {"settings": "formulation containing 10%, daily 2 mg/cm^2 for a week; cited from earlier work", "units": {"time after application at which maximum plasma concentration was reached": "h"}, "values": [
      {"smiles": "Cc1ccc(C=C2C(=O)C3(C)CCC2C3(C)C)cc1", "note": "(stereo not drawn) [4-methylbenzylidene camphor]", "time after application at which maximum plasma concentration was reached": "3 to 4"},
      {"smiles": "CCCCC(CC)COC(=O)C=Cc1ccc(OC)cc1", "note": "(stereo not drawn) [octyl methoxycinnamate]", "time after application at which maximum plasma concentration was reached": "3 to 4"},
      {"smiles": "COc1ccc(C(=O)c2ccccc2)c(O)c1", "note": "[oxybenzone, 2-hydroxy-4-methoxybenzophenone]", "time after application at which maximum plasma concentration was reached": "3 to 4"}
    ]}
  ]
}
